# Reference: patent publication US6759384B1, “Factor Xa inhibitors” (Aventis Pharmaceuticals Inc., priority 1994, dated 2004)
# Counter-ions that a name gives are not always drawn. For some assays here: At least one peptide structure holds a part that was inferred or is arguable (an end, a ring closure or a residue). Some entries share one result that the patent states for a list of compounds. Starred links: 1 amine or outer side, 2 acyl side, 3 side chain; linkers in the order of their positions; H or OH if unused. Non-standard residues stand in square brackets, D forms with d. Residues, ends and D or L forms follow the SMILES beside them. *: point of attachment. X1 = CC(C)CN([C@@H](Cc1ccc(O)cc1)C(=O)[*:2])[*:1]; Phe(4-NH2) = Nc1ccc(C[C@H](N)C(=O)O)cc1; Chg = N[C@H](C(=O)O)C1CCCCC1; Tfa = O=C(C(F)(F)F)*
# Experiments:
# [1] = tested on: coagulation (dilute prothrombin time); experiment: Dilute prothrombin time assay after intraduodenal administration to rats; type: in vivo, rat; conditions: intraduodenal administration of ≦50 mg/kg
# thrombus formation = experiment: Rat arteriovenous shunt model of thrombosis; type: in vivo; conditions: rat AV shunt, infusion of ≦33 μg/kg/min
# [2] = tested on: pooled human platelet poor plasma; experiment: In vitro dilute prothrombin time assay; type: biochemical; conditions: concentration giving 50% inhibition of coagulation, dilute PT
# Experimental: The compounds of the invention were assessed for their ability to inhibit factor Xa activity. Effectiveness of various compounds was assessed by the in vitro prothrombin time (PT) assay using pooled human donor plasma. An ex vivo assay also was used in which plasma was collected at various times after intravenous (iv) administration of a compound to rats and to rabbits or intraduodenal administration to rats and analyzed using the PT assay to determine plasma half-life. The PT assay was initiated with a thromboplastin dilution selected to obtain an extended and highly reproducible coagulation endpoint, referred to as the “dilute PT assay” as described below. Effectiveness of various compounds also was determined using an in vivo rat arteriovenous shunt model of thrombosis. […]
# Alternatively, the dilute prothrombin time assay was conducted using the “research” mode on an Instrumentation Laboratories (IL) ACL3000-plus automated coagulation instrument (IL; Milan, Italy). […] During the assay, a 50 μl sample (plasma separated by centrifugation) was mixed with 100 μl thromboplastin reagent and nephelometric readings were taken over 169 sec. Coagulation time was determined from the maximal rate of change of light scatter calculated by the instrument. Inhibition is expressed as percent activity as determined by comparison with the calibration curve.
Compound,inhibition in the dilute prothrombin time assay [1],inhibition of thrombus growth (thrombus formation),EC50 [2] [nM]
2-Furoyl-pAph-Chg-PalMe(3)-NH2,at least 30%,at least 30%,
3-Iqc-pAph-Chg-PalMe(3)-NH2,at least 30%,at least 30%,
5-Me-thienyl-CO-pAph-Chg-PalMe(3)-NH2,at least 30%,at least 30%,
"CC(C)C[C@H](NC(=O)[C@H](CCCNC(=N)N)NC(=O)[C@@H](NC(=O)[C@H](Cc1ccc(O)cc1)N(CC(C)C)C(=O)C(F)(F)F)C1CCCCC1)C(=O)N1CCC[C@H]1C(N)=O [Tfa—(iBu)Y—Chg—R—L—P—NH2, Tfa-(iBu)Tyr-Chg-Arg-Leu-Pro-NH2] (Tfa-[X1][Chg]RLP-NH2)",,,300
(2-benzofuroyl)-pAph-Chg-PalMe(3)-NH2 [Bzf-pAph-Chg-PalMe(3)-NH2],at least 30%,at least 30%,
Ac-[Phe(4-NH2)][Chg]RLP-NH2 [Ac-F(pNH2)-Chg-R-L-P-NH2],at least 30%,,
Ac-pAph-Chg-NHCH2-(4-methylpyridinium) [Ac-pAph-Chg-AMP(4)],at least 30%,at least 30%,
Ac-pAph-Chg-PalMe(3)-L-P-NH2,at least 30%,at least 30%,
Ac-pAph-Chg-PalMe(3)-NH2,at least 30%,at least 30%,
Ac-pAph-Chg-PalMe(3)-NH-Chx,at least 30%,at least 30%,
Ac-pAph-Chg-PalMe(3)—NH—CH2-Chx [Ac-pAph-Chg-PalMe(3)-NH—CH2-Chx],at least 30%,at least 30%,
Cyclopentyl-CO-pAph-Chg-PalMe(3)-NH2,at least 30%,at least 30%,
Tos—F(pNH2)—Chg—R—L—P—NH2 [Tos-F(pNH2)-Chg-R-L-P-NH2],,at least 30%,
